# Measurements reported in article PMC10169810, “Ligand-induced activation and G protein coupling of prostaglandin F2α receptor” (Nature Communications, 2023).
# Where “and” joins values, the source holds several entries; their conditions need not be identical. Equal entries are not always repeated.
# Test system: WT or mutants FP
# Assay: Receptor cell-surface expression by flow cytometry
# Assay type: cell-based, human
# Conditions: source data of Supplementary Fig. 5d; three individual replicate values per receptor construct; no ligand
row,Substance,Receptor cell-surface expression of WT or mutant FP (Supplementary Fig. 5d)
1,R291A,88.67 and 103.68 and 90.82
2,T294S,94.82 and 97.77 and 92.26
3,I298A,104.12 and 129.25 and 130.36
4,W262A,102.54 and 96.76 and 88.97
5,M115A,103.38 and 90.45 and 114.39
6,N84A,65.82 and 118.16 and 109.68
7,S118A,122.03 and 115.33 and 104.09
8,S118F,116.00 and 106.83 and 96.29
9,N84T,98.85 and 106.79 and 105.50
10,S118N,119.98 and 116.97 and 59.11
11,Q297A,95.58 and 110.44 and 105.46
12,F187A,130.86 and 102.97 and 92.45
13,W185A,106.04 and 90.97 and 102.99
14,S33A,98.41 and 107.52 and 102.41
15,F205A,99.29 and 98.25 and 95.87
16,T294A,89.16 and 88.76 and 94.97
17,F265A,106.02 and 90.98 and 90.80
18,Y92A,88.79 and 116.96 and 120.70
19,WT,93.36 and 105.29 and 101.35
20,L290A,101.13 and 82.86 and 104.85
21,H81A,99.15 and 107.28 and 64.39
